Experimental data: paper doi:10.1101/2023.03.06.531343
These are yes or no findings as the source states them, for the method shown. Binding seen in cells or lysates may run through a third protein. Some entries that bind do so weakly or less than the wild type. Sequences can lack the tags named with a protein.

Chains of the proteins cited; added tags and fusions are not shown. Residues count along the entry.
UniProt P0A3W8: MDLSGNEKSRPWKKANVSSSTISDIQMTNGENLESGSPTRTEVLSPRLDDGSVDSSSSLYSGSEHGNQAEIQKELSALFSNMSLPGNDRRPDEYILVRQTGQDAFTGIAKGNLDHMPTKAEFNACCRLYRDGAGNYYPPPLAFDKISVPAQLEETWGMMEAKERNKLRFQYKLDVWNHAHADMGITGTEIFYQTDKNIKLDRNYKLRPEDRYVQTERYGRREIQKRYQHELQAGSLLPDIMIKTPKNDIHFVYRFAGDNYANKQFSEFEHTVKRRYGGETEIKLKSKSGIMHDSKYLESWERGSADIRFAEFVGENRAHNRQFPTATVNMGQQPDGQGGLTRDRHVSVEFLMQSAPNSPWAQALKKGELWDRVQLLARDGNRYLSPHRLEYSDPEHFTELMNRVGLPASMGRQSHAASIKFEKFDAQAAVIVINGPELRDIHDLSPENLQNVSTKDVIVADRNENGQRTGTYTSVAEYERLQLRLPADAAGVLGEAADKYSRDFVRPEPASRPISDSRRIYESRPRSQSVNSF
UniProt F4K5J1, residues 808-1531: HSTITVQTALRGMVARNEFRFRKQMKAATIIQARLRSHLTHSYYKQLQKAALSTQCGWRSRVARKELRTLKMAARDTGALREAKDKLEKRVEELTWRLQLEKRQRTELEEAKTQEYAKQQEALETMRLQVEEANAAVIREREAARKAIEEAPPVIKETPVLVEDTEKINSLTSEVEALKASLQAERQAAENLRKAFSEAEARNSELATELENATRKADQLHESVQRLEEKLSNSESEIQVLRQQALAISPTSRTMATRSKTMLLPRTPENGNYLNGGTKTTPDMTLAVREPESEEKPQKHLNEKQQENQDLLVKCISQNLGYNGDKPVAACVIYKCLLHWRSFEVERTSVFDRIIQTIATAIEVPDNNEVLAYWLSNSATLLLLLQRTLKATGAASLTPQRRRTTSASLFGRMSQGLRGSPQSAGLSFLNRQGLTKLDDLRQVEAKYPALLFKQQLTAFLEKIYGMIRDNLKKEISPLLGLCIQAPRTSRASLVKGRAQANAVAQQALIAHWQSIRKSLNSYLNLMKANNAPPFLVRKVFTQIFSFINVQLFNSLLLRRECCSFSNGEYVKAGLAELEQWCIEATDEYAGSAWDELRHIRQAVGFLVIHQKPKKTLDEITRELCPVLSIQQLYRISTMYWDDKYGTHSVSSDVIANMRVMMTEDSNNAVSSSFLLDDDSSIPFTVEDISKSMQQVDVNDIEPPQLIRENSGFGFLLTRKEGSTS

B1: myc-tagged myosin VIII-A cargo binding domain (E. coli) (domain or fragment, UniProt F4I507 948-1153)
chain: YLSDLQRRVLRTEAALREKEEENDILRQRVQQYDNRWSEYETKMKSMEEIWQKQMKSLQSSLSIAKKSLEVEDSARNSDASVNASDATDLDSGGSHYQMGHGRSRSVGVGLSVISRLAEEFGQRAQVFGDDRKFLMEVKSGQVEANLNPDRELRRLKQMFETWKKDYGGRLRETKLILSKLGSEETGGSAEKVKMNWWGRLRSTRY
B2: myc-tagged VIP1 (transgenic Arabidopsis roots) (protein, UniProt Q9MA75 1-341)
chain: MEGGGRGPNQTILSEIEHMPEAPRQRISHHRRARSETFFSGESIDDLLLFDPSDIDFSSLDFLNAPPPPQQSQQQPQASPMSVDSEETSSNGVVPPNSLPPKPEARFGRHVRSFSVDSDFFDDLGVTEEKFIATSSGEKKKGNHHHSRSNSMDGEMSSASFNIESILASVSGKDSGKKNMGMGGDRLAELALLDPKRAKRILANRQSAARSKERKIRYTGELERKVQTLQNEATTLSAQVTMLQRGTSELNTENKHLKMRLQALEQQAELRDALNEALRDELNRLKVVAGEIPQGNGNSYNRAQFSSQQSAMNQFGNKTNQQMSTNGQPSLPSYMDFTKRG
B3: myc-tagged myosin VIII-B cargo binding domain (E. coli) (domain or fragment, UniProt F4JIU4 954-1134)
chain: ADLQSRVLKVEAAIMQKEDENTALQEELQRFEERWLENETRMKSMEDTWQKHMSSMQMSLAAACKVLAPDKTASHGTDSEDTMSFGTPTKELKGSLSDVNNLSTEFDQRSVIIHEDPKSLVEVKSDSISNRKQHAEELRRLKSRFEKWKKDYKTRLRETKARVRLNGDEGRHRNWWCKKSY
B4: myc-tagged myosin VIII-2 cargo binding domain (E. coli) (domain or fragment, UniProt F4K0A6 1003-1220)
chain: SMSDLQKRILKSEAALSQKEEENTALREQLRQFEERWSEYDIKMKSMEETWQKQMSSLQMSLAAARKSLAAESITGQAGGRQDTSISPFGYDSEDTMSTGTPGVRTPTNKFTNGNTPELRIRELNGSLNAVNHLAREFDQRRLNFDEDARAIVEVKLGPQATPNGQQQQHPEDEFRRLKLRFETWKKDYKARLRDTKARLHRVDGDKGRHRKWWGKRG
B5: myc-tagged VIP1 (E. coli) (protein, UniProt Q9MA75 1-341)
chain: MEGGGRGPNQTILSEIEHMPEAPRQRISHHRRARSETFFSGESIDDLLLFDPSDIDFSSLDFLNAPPPPQQSQQQPQASPMSVDSEETSSNGVVPPNSLPPKPEARFGRHVRSFSVDSDFFDDLGVTEEKFIATSSGEKKKGNHHHSRSNSMDGEMSSASFNIESILASVSGKDSGKKNMGMGGDRLAELALLDPKRAKRILANRQSAARSKERKIRYTGELERKVQTLQNEATTLSAQVTMLQRGTSELNTENKHLKMRLQALEQQAELRDALNEALRDELNRLKVVAGEIPQGNGNSYNRAQFSSQQSAMNQFGNKTNQQMSTNGQPSLPSYMDFTKRG
B6: nVenus-tagged full-length myosin VIII-1 (BiFC, transgenic Arabidopsis roots) (protein, UniProt Q9LHE9 1-1166)
chain: MSQKVTPFMQSLKSLPADYRFDGSPVSDRLENSSGASVRLTNSNVPRKGGLRNGVSRTDTAAGDSEDSPYSGHGVFVEEQSLTDDVDSGAATMPLPQSDERRWSDTSAYARKKILQSWIQLPNGNWELGKILSTSGEESVISLPEGKVIKVISETLVPANPDILDGVDDLMQLSYLNEPSVLYNLNYRYNQDMIYTKAGPVLVAVNPFKEVPLYGNRYIEAYRKKSNESPHVYAIADTAIREMIRDEVNQSIIISGESGAGKTETAKIAMQYLAALGGGSGIEYEILKTNPILEAFGNAKTLRNDNSSRFGKLIEIHFSESGKISGAQIQTFLLEKSRVVQCAEGERSYHIFYQLCAGASPALREKLNLTSAHEYKYLGQSNCYSINGVDDAERFHTVKEALDIVHVSKEDQESVFAMLAAVLWLGNVSFTVIDNENHVEPVADESLSTVAKLIGCNINELTLTLSKRNMRVRNDTIVQKLTLPQAIDARDALAKSIYSCLFDWLVEQINKSLAVGKRRTGRSISILDIYGFESFDKNSFEQFCINYANERLQQHFNRHLFKLEQEEYIQDGIDWTRVDFEDNQNCLSLFEKKPLGLLSLLDEESTFPNGTDLTLANKLKQHLQSNSCFRGDKGKLFTVVHYAGEVTYETTGFLEKNRDLLHSDSIQLLSSCSCLLPQAFASSMLIQSEKPVVGPLYKAGGADSQRLSVATKFKSQLFQLMQRLGNTTPHFIRCIKPNNIQSPGVYEQGLVLQQLRCCGVLEVVRISRSGFPTRMSHQKFSRRYGFLLVENIADRDPLSVSVAILHQFNILPEMYQVGYTKLFFRTGQIGVLEDTRNRTLHGILRVQSSFRGYQARCLLKELKRGISILQSFVRGEKIRKEFAELRRRHKAAATIQSQVKSKIARIQYKGIADASVVIQSAIRGWLVRRCSGDIGWLKSGGAKTNELGEVLVKASVLSELQRRVLKAEAALREKEEENDILQQRLQQYENRWSEYETKMKSMEEIWQKQMRSLQSSLSIAKKSLAVEDSARNSDASVNASDATDWDSSSNQFRSQTSNGVGSRLQPMSAGLSVIGRLAEEFEQRAQVFGDDAKFLVEVKSGQVEANLDPDRELRRLKQMFETWKKDYGGRLRETKLILSKLGSEESSGSMEKVKRKWWGRRNSTRY

How the values were obtained:
[1] = target: VirE2-Venus (recombinant, E. coli) (Agrobacterium tumefaciens) (UniProt P0A3W8); assay: pull-down
[2] = target: VirE2-cEYFP (BiFC, transgenic Arabidopsis roots) (Agrobacterium tumefaciens) (UniProt P0A3W8); assay: split reporter
[3] = target: VirE2-Venus (expressed in transgenic Arabidopsis roots) (Agrobacterium tumefaciens) (UniProt P0A3W8); assay: co-IP

Molecule	binding [1]	binding [2]	other results
myc-tagged myosin VIII-1 cargo binding domain (E. coli) (from UniProt Q9LHE9 953-1166) (domain or fragment)	no binding		
nVenus-tagged full-length myosin VIII-B (BiFC, transgenic Arabidopsis roots) (from UniProt F4JIU4 1-1134)		binds	
nVenus-tagged full-length myosin VIII-A (BiFC, transgenic Arabidopsis roots) (from UniProt F4I507 1-1153)		binds	
myc-tagged myosin XI-K cargo binding domain (E. coli) (from UniProt F4K5J1 808-1531) (domain or fragment)	binds		
nVenus-tagged full-length myosin VIII-2 (BiFC, transgenic Arabidopsis roots) (from UniProt F4K0A6 1-1220)		binds	
B1	binds		
B2			binding [3]: binds
B3	binds		
B4	binds		
B5	binds		
B6		no binding	
